Structures are written as SMILES. ± gives the standard deviation of the averaged measurements. What follows is the remainder of the data, with few or none of the lowest values.

In the supplement of paper PMC10670038 one finds relative cell viability data, which are given here for one molecule.

For this assay, the system named is TE10. Description: relative cell viability vs DMSO, compound + 0.2 uM CuET (fraction); TE10 is an esophageal squamous carcinoma line; higher = less cytotoxic. The settings on record: 2 µM; co-treatment: CuET (bis(diethyldithiocarbamate)copper) 0.2 uM; 48 h. On the procedure:
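TE10 ESCC cells (1,000/well, 384-well plates) were treated with Selleck bioactive library compounds at 2 uM combined with 0.2 uM CuET (copper diethyldithiocarbamate) for 48 h. Viability was read by CellTiter-Glo and expressed relative to DMSO wells. Two technical replicates (A, B).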
`Cc1c(C(=O)NN2CCCCC2)nn(-c2ccc(Cl)cc2Cl)c1-c1ccc(I)cc1`: the relative cell viability was 1.27 ± 0.34.
